# Test results published in US20240034779A1.
# Results are given in words; binding and its absence hold for the method and conditions named. Binding can be weak; no strength is given.
# B1: anti-CFD antibody 2 (clone 169C8) (antibody, human IgG1, lambda, L234A L235A, V domains shown)
# VH: EVQVQESGPGLVKPSQTLSLTCTVSGGSITTSYYAWSWIRQPPGKGLEWMGDIANDGSTYYSPSLESRTSISRDTSKNQFSLQLSSVTPEDTAVYYCARLRSLYTDYDPHYYDYWGQGTQVTVSS
# VL: SSALTQPSALSVTKGQTAKITCQGDLLPRHYAHWYQQKTGQAPKLIVYDDDIRPSGIPERFSGSNSGGVATLTIAGAQAEDEADYHCQSADSNDDAVFGGGTHLTVLS
# Target: cynomolgus complement factor D (CFD) (cynomolgus monkey)
# Test: SPR (Biacore), pH 7.4 and pH 5.5
binder,measurement,value
B1,binding,binds
